Experimental data taken from publication PMC8384837.
Some of the results follow. For some assays here: At the low end of the ranking the order means little. For some assays here: The source does not settle which construct or isoform was used.

Columns and labels:
Conditions in all cases: yeast three-hybrid, YBZ-1, SC-Leu-His + 0.5 mM 3-AT, 4 days
[1] = biological target: T1, PUM1 PUF domain R1-QFR R2-VFQ R7-NPG S863Q + R864F + Q867R + N899V + Y900F + S1079N + N1080P + E1083G (UniProt Q14671)
T1 sequence: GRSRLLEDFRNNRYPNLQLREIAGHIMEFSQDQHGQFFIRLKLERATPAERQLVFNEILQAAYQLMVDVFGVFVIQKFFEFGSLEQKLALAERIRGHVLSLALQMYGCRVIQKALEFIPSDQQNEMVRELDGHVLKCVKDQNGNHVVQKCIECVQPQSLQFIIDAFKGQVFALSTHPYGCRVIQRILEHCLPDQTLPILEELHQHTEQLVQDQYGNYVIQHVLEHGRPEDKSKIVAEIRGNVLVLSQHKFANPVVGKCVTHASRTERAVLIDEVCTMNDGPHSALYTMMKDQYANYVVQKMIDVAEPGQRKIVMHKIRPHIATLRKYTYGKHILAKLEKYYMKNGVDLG

[2] = biological target: T2, PUM1 PUF domain R3-THE R4-TFR C935T + R936H + Q939E + N971T + H972F + Q975R (UniProt Q14671)
T2 sequence: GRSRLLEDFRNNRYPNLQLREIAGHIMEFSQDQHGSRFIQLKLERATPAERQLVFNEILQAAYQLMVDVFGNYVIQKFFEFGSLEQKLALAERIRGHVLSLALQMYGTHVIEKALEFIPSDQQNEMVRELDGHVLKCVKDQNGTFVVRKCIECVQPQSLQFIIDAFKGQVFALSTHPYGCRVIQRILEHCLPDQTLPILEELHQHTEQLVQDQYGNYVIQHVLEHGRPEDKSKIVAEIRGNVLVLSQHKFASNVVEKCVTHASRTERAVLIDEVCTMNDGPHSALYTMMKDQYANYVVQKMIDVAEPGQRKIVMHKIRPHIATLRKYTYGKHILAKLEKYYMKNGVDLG

[3] = biological target: T3, PUM1 PUF domain R5-PHQ R6-SWD C1007P + R1008H + N1043S + Y1044W + Q1047D (UniProt Q14671)
T3 sequence: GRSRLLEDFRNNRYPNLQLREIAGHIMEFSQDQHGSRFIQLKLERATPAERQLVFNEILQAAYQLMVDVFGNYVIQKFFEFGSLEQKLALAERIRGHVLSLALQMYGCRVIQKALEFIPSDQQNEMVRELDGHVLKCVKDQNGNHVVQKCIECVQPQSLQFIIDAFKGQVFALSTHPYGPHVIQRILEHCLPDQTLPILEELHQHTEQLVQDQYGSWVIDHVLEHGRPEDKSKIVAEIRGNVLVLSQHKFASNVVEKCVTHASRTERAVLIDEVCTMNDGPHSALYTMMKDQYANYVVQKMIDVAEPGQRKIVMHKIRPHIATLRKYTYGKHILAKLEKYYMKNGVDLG

Row | Sequence | binding signal (log2 enrichment (interaction score)) [1] | binding signal (log2 enrichment (interaction score)) [2] | binding signal (log2 enrichment (interaction score)) [3]
1 | GGCUAGAACUAGUGGAUCCCCCGGCGCCCGGCGGCUCGAGCCCGGGUAAGUUAAAUUAGUCUGCAUGCCGCCGGGCGCCAUGCCUGCAGGUCGACUCUAGAAAACAUG | < -6.65 | -6.06 | 
2 | GGCUAGAACUAGUGGAUCCCCCGGCGCCCGGCGGCUCGAGCCCGGGUAAGUGAAAAAAGUCUGCAUGCCGCCGGGCGCCAUGCCUGCAGGUCGACUCUAGAAAACAUG | -5.89 | -6.3 | < -6.95
